# Source: article PMC5996148
# By UniProt entry, the sequences of proteins in these tests, tags left out.
# UniProt P30530, whole entry: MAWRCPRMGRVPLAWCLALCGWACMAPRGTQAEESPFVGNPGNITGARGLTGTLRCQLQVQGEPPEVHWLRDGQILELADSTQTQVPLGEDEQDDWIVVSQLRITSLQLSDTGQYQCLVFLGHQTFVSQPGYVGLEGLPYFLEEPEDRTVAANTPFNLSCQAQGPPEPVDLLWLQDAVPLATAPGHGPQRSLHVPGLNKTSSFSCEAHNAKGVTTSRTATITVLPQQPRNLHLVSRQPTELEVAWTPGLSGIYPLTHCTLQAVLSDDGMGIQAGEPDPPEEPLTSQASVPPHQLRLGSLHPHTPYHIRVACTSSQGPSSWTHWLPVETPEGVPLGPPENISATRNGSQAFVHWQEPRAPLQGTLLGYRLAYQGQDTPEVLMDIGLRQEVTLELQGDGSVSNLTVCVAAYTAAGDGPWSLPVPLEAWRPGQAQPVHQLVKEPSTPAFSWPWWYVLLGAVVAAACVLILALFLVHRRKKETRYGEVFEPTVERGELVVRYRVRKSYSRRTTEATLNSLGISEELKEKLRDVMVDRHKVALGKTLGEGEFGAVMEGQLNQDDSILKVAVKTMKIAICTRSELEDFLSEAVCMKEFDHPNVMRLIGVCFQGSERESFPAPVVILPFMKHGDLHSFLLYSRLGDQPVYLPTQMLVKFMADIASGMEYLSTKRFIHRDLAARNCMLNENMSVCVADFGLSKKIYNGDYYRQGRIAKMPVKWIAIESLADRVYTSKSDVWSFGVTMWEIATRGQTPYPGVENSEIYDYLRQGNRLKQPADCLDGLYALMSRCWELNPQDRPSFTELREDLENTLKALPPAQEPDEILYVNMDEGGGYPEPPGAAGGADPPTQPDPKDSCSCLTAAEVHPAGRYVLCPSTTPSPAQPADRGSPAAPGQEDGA
# Some of the results follow. For some of these results: The exact form of the protein is not confirmed.
# Columns and labels:
# Experiment in all cases: protein microarray (ProtoArray v5.0), streptavidin-Alexa Fluor 647
# Conditions in all cases: 3'-biotin; 20 mM Tris (pH 7.5), 5 mM MgCl2, 100 mM KCl, 0.1% Tween-20, A/T-rich and random oligonucleotide blockers; temperature not stated; high values mean tight binding
# [1] = tested on: ATP-dependent RNA helicase A (human)
# [2] = tested on: ATP-dependent RNA helicase DHX8 (human)
# ATP5C1 = target: T1, ATP5C1 (UniProt P36542)
# T1 sequence: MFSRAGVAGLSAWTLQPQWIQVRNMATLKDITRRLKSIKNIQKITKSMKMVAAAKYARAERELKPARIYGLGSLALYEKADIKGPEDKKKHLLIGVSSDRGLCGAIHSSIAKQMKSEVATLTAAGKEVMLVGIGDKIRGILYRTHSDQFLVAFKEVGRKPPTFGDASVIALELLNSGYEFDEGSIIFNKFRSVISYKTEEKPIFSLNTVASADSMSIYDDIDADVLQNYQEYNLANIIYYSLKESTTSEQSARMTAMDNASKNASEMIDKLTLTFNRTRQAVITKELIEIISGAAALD
# ATP5O = target: T2, ATP5O (UniProt P48047)
# T2 sequence: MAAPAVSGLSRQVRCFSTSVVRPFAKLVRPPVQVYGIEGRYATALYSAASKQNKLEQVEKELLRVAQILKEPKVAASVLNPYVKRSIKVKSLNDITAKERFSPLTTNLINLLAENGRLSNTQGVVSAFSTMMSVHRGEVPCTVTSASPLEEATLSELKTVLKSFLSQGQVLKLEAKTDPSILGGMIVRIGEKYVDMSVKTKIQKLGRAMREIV
# ATP6V1B1 (human) = tested on: ATP6V1B1 (human)
# ATXN3 (human) = tested on: ATXN3 (human)
# AXL = AXL (UniProt P30530)
# AZIN1 (human) = tested on: AZIN1 (human)
# [3] = tested on: Acyl carrier protein, mitochondrial (human)
# [4] = tested on: Adenylate kinase isoenzyme 4, mitochondrial (human)
sequence,measurement,setting,value
GGGGACAGGGGTATGGGGAGGGG [G4-3 biotinylated (CtG)],binding signal,[1],-0.301 z-score
same,binding signal,[2],3.32 z-score
same,binding signal,ATP5C1,-0.316 z-score
same,binding signal,ATP5O,3.33 z-score
same,binding signal,ATP6V1B1 (human),-0.325 z-score
same,binding signal,ATXN3 (human),-0.312 z-score
same,binding signal,AXL,-0.326 z-score
same,binding signal,AZIN1 (human),-0.308 z-score
same,binding signal,[3],-0.332 z-score
same,binding signal,[4],-0.332 z-score
